Results as given in publication PMC6127989, “Cytosolic GAPDH as a redox-dependent regulator of energy metabolism” (BMC Plant Biology, 2018).
Results are given in words; binding and its absence hold for the method and conditions named. In cells and extracts the contact can be indirect. Some results given as binding are weak or reduced against the parent protein; the word gives no strength. Sequences can lack the tags named with a protein.

Protein sequences, listed by entry. Tags and fused reporters are not part of them.
UniProt P25858: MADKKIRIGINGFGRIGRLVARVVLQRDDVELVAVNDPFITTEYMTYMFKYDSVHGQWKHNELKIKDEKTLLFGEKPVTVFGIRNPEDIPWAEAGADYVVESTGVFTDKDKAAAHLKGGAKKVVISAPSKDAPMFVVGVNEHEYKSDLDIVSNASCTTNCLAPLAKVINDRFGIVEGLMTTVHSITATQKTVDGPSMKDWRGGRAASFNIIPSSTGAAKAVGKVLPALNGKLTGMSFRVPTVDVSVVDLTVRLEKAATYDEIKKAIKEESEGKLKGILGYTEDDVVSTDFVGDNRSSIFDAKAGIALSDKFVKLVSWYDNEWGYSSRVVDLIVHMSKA
UniProt Q9FX54: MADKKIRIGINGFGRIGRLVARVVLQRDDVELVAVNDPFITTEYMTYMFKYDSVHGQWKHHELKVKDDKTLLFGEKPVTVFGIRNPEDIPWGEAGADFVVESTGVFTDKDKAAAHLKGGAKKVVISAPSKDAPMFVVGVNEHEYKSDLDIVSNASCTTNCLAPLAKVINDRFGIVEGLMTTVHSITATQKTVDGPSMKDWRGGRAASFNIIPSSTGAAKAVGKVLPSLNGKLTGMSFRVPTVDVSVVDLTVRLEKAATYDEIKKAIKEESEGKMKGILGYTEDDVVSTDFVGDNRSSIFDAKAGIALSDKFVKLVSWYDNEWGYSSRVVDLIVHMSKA

How the values were obtained:
[1] = target: GapC1-YFPNE (GapC1 fused to the N-terminal half of YFP) (A. thaliana) (UniProt P25858); assay: split reporter; split-YFP in transiently co-transformed Arabidopsis mesophyll protoplasts, 16 h at 22 °C; treated with DTT, 0.2 mM H2O2 or 0.05 mM GSNO before confocal microscopy; bZip63-mCherry as nuclear marker
[2] = target: GapC2-YFPNE (GapC2 fused to the N-terminal half of YFP) (A. thaliana) (UniProt Q9FX54); assay: as above

B1: recombinant thioredoxin Trx-h3 from A. thaliana (natural protein, UniProt Q42403 1-118, looked up)
chain: MAAEGEVIACHTVEDWTEKLKAANESKKLIVIDFTATWCPPCRFIAPVFADLAKKHLDVVFFKVDVDELNTVAEEFKVQAMPTFIFMKEGEIKETVVGAAKEEIIANLEKHKTVVAAA
notes: Thioredoxin h3 (Trx-h3), Arabidopsis thaliana
In the case of B1, the binding [1] is reported as “binds” and the binding [2] is reported as “binds”.
